By UniProt entry, the sequences of proteins in these tests, tags left out.
UniProt Q92793, whole entry: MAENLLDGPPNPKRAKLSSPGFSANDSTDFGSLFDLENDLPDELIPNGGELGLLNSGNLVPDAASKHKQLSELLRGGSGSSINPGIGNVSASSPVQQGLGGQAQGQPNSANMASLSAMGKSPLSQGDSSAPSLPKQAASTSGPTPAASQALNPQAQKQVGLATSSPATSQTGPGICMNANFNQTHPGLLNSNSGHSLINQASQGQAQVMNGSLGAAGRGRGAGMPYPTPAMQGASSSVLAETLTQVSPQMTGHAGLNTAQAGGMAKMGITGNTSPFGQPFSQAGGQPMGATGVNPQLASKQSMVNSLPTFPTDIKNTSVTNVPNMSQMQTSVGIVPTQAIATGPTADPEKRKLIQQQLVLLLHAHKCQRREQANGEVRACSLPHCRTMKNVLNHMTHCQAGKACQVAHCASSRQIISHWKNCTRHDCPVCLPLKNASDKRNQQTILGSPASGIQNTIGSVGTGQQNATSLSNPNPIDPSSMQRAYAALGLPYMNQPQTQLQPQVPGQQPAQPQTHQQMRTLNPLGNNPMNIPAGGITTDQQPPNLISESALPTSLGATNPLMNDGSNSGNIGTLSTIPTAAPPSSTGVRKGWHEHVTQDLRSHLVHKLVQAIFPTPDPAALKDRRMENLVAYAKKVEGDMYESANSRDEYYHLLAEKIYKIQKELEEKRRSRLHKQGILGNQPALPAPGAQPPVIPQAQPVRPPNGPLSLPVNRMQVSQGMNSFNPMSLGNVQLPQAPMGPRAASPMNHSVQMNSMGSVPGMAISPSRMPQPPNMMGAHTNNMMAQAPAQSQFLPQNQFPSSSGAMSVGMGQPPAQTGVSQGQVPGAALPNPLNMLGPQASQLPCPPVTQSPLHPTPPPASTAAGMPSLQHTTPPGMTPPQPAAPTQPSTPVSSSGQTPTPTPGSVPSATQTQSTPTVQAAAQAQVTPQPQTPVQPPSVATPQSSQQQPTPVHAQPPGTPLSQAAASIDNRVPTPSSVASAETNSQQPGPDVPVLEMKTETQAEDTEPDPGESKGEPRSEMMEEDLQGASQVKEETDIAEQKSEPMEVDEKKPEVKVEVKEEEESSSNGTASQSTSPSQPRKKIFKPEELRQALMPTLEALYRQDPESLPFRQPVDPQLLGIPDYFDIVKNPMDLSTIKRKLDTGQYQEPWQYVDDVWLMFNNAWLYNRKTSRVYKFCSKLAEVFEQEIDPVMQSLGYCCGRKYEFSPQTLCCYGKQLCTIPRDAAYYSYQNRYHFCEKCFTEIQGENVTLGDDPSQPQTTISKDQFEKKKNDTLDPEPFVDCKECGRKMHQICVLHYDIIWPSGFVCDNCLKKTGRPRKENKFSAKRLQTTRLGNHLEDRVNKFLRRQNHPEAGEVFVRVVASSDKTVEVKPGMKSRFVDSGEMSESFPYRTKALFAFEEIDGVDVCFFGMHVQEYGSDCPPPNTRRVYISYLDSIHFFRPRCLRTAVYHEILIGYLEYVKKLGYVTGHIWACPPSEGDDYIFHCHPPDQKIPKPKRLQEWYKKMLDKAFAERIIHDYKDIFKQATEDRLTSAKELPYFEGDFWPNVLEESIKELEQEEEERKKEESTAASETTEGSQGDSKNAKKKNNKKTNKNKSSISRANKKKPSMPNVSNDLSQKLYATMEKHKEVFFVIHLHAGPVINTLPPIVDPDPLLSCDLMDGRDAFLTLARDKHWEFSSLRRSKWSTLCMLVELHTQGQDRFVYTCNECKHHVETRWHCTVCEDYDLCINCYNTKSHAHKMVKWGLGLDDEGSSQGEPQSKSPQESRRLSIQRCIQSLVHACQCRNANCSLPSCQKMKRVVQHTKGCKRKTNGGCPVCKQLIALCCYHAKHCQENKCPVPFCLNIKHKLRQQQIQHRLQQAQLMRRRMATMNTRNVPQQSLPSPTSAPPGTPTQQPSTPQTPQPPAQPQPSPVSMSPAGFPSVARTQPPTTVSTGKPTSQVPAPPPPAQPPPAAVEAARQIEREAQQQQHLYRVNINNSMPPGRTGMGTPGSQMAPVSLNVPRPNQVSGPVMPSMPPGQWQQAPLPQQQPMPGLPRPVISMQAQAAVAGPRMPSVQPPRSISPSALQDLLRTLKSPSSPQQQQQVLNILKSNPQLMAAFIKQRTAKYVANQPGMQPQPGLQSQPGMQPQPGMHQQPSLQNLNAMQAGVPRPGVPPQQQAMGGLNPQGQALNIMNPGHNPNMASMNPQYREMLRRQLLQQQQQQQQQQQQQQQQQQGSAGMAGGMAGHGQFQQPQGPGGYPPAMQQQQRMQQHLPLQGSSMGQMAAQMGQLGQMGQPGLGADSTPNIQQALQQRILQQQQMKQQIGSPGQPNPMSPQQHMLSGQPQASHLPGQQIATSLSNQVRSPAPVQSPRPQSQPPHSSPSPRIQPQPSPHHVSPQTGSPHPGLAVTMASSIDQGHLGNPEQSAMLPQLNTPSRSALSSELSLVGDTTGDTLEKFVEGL

In ChEMBL document CHEMBL5728977, “Therapeutic compounds and uses thereof” (2022):

Biological target: CREB-binding protein (Homo sapiens, UniProt Q92793)

## COc1ccc(C2=NC3C=CC=C(c4nn(C5CCOCC5)c5c4CN(C(C)=O)CC5)C3O2)cc1 (stereo unspecified)
  IC50: 4.11 nM
